Reference: publication PMC9066784
No constants are given. Whether binding was seen depends on the method and setting. In cells and extracts the contact can be indirect. Some entries that bind do so weakly or less than the wild type.

Protein sequences, listed by entry. Tags and fused reporters are not part of them. Lines headed by an entry give the natural chain unless they say otherwise; changes in a name come on top. Residues count along the entry.
UniProt Q969H0: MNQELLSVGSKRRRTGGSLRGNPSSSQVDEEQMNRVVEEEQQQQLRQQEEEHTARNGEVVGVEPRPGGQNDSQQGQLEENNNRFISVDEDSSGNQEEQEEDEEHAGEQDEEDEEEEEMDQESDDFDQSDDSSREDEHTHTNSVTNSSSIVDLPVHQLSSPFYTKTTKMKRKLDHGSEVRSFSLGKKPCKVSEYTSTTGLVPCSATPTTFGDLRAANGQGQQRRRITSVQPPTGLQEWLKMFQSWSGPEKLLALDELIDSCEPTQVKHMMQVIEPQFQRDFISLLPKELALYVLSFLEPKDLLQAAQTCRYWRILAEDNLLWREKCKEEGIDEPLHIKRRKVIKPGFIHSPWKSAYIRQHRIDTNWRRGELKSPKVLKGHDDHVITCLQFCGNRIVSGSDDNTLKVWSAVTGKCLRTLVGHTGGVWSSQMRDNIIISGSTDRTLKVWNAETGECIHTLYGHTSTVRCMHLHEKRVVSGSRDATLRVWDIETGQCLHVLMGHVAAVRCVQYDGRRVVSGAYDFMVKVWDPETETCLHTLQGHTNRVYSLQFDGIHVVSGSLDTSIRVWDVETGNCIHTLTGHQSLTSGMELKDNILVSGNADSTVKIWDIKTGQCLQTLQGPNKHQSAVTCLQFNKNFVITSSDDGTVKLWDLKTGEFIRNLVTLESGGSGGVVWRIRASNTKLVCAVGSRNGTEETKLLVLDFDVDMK
UniProt P46531, residues 1754-2555: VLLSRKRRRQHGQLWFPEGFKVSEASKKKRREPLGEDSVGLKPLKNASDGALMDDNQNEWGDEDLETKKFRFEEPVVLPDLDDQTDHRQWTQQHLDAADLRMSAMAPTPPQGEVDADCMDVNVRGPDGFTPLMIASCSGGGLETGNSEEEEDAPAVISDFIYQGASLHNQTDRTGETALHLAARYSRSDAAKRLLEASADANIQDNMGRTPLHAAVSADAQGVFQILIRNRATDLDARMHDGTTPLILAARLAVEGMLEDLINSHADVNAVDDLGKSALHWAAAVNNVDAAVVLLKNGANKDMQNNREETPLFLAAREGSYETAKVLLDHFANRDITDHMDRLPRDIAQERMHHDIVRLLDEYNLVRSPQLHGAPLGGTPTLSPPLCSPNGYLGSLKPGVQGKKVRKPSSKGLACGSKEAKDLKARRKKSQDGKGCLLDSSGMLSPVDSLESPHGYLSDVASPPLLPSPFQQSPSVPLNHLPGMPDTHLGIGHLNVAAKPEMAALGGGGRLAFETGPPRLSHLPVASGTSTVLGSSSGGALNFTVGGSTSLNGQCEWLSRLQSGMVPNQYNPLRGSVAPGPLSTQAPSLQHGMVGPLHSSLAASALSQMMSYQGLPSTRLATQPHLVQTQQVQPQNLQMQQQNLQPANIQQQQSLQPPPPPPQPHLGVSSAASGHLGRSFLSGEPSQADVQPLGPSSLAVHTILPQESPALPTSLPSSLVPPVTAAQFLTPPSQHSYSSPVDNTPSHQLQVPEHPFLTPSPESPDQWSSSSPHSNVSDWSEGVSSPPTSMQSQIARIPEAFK
UniProt Q15208: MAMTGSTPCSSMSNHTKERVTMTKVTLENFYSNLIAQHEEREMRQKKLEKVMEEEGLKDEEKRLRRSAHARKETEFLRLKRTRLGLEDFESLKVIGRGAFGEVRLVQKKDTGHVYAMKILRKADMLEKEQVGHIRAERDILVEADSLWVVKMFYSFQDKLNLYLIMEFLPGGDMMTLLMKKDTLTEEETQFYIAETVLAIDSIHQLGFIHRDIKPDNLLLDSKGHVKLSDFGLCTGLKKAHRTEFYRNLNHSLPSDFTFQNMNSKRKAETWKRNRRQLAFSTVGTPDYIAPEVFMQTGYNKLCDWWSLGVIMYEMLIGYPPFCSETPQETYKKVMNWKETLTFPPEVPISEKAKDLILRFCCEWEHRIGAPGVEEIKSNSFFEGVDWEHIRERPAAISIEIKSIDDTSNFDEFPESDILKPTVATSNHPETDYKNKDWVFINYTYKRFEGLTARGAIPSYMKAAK

Experiments:
[1] = target: Fbw7/Sel10 ubiquitin ligase (UniProt Q969H0); test: co-IP; SUM149 cells transfected with indicated vectors for 24 h; total protein, immunoprecipitation and western blot (Fig. 5h)
[2] = target: Notch1 intracellular domain (endogenous NICD) (human (endogenous in SUM149)) (UniProt P46531); test: co-IP; wild type or kinase-dead NDR1 or control vector overexpressed in SUM149 cells for 24 h; total protein, immunoprecipitation and western blot (Fig. 5e)
[3] = target: Notch1 intracellular domain (endogenous NICD) (human (endogenous in SUM149)) (UniProt P46531); test: co-IP; total protein of SUM149 cells, endogenous proteins, immunoprecipitation and western blot with antibodies as indicated (Fig. 5d)

binding [1] | binding [2] | binding [3] | Substance
binds | binds | – | wild type NDR1 (overexpressed) (from UniProt Q15208 1-465)
binds | binds | – | kinase-dead (K118A) NDR1 (overexpressed) (from UniProt Q15208 1-465)
– | – | binds | NDR1/STK38 kinase (endogenous) (from UniProt Q15208 1-465)
